In publication doi:10.1101/503680 (bioRxiv, 2018):
Results are given in words; binding and its absence hold for the method and conditions named. In cells and extracts the contact can be indirect. Some results given as binding are weak or reduced against the parent protein; the word gives no strength.

Amino acid sequences for entries named in this document (tags omitted). A change or cut given only in a name is not applied to a line headed by its entry. Chains listed by the source or under a name are the forms on record and can include a tag or linker. Residues count along the entry.
FLAG-KIF3A-motor (P28741, residues 1-350): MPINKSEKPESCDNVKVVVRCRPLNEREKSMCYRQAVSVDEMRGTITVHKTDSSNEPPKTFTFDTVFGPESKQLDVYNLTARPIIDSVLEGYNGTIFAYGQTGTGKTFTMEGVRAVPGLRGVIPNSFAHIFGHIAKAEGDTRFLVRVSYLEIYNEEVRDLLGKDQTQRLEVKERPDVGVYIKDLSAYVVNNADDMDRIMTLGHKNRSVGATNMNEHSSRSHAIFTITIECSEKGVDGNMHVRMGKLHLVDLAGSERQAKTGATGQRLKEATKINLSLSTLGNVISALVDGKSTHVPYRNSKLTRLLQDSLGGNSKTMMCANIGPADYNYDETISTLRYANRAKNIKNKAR
GST-KIF3A-S689A-Tail (expressed in HEK293 cells) (P28741, form named): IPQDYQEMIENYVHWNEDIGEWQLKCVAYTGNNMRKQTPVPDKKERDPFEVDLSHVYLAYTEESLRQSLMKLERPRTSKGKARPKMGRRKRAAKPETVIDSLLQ

Molecular target: FLAG-KIF3A-motor (mouse) (UniProt P28741)
Assay: co-IP

With “GST-KIF3A-S689A-Tail (expressed in HEK293 cells) (from UniProt P28741 598-701) (domain or fragment)” the binding was “binds”.
